Like-named read-outs stand apart in the source and are kept apart here. These are yes or no findings as the source states them, for the method shown. Binding seen in cells or lysates may run through a third protein. Some entries that bind do so weakly or less than the wild type.
What was measured:
[1] = target: T1, Vitamin D receptor (mouse (endogenous in RAW264.7)) (UniProt P48281); assay: co-IP
T1 sequence: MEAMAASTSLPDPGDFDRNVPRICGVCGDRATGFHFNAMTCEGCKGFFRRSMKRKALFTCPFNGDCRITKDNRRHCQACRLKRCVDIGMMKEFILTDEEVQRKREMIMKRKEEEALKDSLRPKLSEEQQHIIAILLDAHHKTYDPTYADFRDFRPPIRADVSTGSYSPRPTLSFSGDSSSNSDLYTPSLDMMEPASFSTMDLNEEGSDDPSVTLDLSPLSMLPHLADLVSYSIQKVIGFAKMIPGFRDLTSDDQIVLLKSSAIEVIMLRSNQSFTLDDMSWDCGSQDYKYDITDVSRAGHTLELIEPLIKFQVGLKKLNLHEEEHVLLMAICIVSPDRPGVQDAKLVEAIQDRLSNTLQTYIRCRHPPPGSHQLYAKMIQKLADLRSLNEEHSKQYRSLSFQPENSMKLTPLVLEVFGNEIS

[2] = target: T1, Vitamin D receptor (mouse (endogenous in RAW264.7)); assay: co-IP; remark: listed apart in the source

**Q.** For NF-κB p65 (from UniProt Q04207-1 1-549), which binding [1] is on record?
**A.** binds

**Q.** And the binding [2]?
**A.** binds
